Results: patent US20070259817A1
Results are given in words; binding and its absence hold for the method and conditions named.

Target: native collagen type-IV
Assay: solid phase ELISA, labeled CLK-peptide on coated plates; FIG. 15

CLKQNGGNFSLG (HRP label (site of attachment not stated)) [HRP-labeled CLK-Peptide]
binding: no binding
